From CN105461808A
Results are given in words; binding and its absence hold for the method and conditions named. Binding can be weak; no strength is given.

Tests used:
[1] = biological target: MonkeyPDL1-his (monkey); experiment: ELISA, MonkeyPDL1-his coated
[2] = biological target: MonkeyPDL1-his (monkey); experiment: summary of the tests done (ELISA)
[3] = biological target: MonkeyPDL1-his (monkey); experiment: ELISA, MonkeyPDL1-his coated (legend of Fig. 3-4)

Measured: binding

B1: H018-17B5.5.1 (antibody, mouse IgG1, V domains shown)
VH: QVQLQQSGAELMKPGASVKISCKATGYKFSSYWIEWVKQRPGHGLEWIGEILPGSGNPNYDEKFKGKATFTADTSSNTAYMQLSSLTSEDSAVYYCARERWMDSWGQGTSVTVSS
VL: DIQMTQTASSLSASLGDRVTISCSASQGIFNYLNWYQQKPDGTVTVLIYYTSRLHSGVPSRFSGSGSGTDYSLTISNLEPEDIATYYCQQYSKLPYTFGGGTKLEIKR
binds: all assays above

B2: H017-6F11.3.2 (antibody, mouse IgG2b, V domains shown)
VH: EVQLQQSGAELVKPGASVKLSCTASGFNIKDTYIHWMRQRPEQGLEWIGRIDPANDNTKYDPKFQGKATVTADTSSNTAYLQLSSLTSEDTAVYYCARGLRLRYFDVWGAGTTVTVSS
VL: DIQMTQTPSSLSASLGGKVTITCKASQDIHKYIAWYQHKPGKGPRLLIHYTSTLQPGIPSRFSGSGSGRDFSFSISNLEPEDFETYYCLQYENLLPTFGGGTKLEIK
binds: all assays above

B3: H017-9C10.2.8 (antibody, mouse IgG1, V domains shown)
VH: QVQLKQSGFGLVLPSQSLSITCTVSGFSLTSYGVHWVRQSPGKGLEWLGLIWSGGGTDYNAAFISRLSISKDNSKSQVFFKINSLQANDTAIYYCARQLGLRAMDYWGQGTSVTVSS
VL: DILLTQSPAILSVSPGERVSFSCRASQSIGTTIHWYQQRTNGSPRLLIKYASESVSGIPSRFSGSGSGTDFTLSINSVESEDIADYYCQQSNSWPLTFGAGTKLEIK
binds: all assays above
